Laboratory results taken from PubChem BioAssay AID1671190 (National Center for Advancing Translational Sciences (NCATS), 2021).
“And” between values parts separate entries of the source, which are not always exact repeats. Identical values can stand only once. Among all 580,000 compounds or so, about 6,100 (1.1%) were called active. This list was built around the results that the source calls inconclusive (neither active nor inactive); the mix of calls is not that of the screen. The call rests on the fitted dose curve; in most records, active means well fitted inhibition curve with a large enough effect; inconclusive means small, poorly fitted or top-dose-only effect, or another doubt; inactive means no such curve, though single readings can be large or run the other way. Where the call is inconclusive, the potency comes from a doubtful curve fit.

The chains behind the UniProt entries cited, without tags or fusion partners. Where a name states a change or a piece, a line headed by the entry shows the natural chain unless it says otherwise.
UniProt P18054: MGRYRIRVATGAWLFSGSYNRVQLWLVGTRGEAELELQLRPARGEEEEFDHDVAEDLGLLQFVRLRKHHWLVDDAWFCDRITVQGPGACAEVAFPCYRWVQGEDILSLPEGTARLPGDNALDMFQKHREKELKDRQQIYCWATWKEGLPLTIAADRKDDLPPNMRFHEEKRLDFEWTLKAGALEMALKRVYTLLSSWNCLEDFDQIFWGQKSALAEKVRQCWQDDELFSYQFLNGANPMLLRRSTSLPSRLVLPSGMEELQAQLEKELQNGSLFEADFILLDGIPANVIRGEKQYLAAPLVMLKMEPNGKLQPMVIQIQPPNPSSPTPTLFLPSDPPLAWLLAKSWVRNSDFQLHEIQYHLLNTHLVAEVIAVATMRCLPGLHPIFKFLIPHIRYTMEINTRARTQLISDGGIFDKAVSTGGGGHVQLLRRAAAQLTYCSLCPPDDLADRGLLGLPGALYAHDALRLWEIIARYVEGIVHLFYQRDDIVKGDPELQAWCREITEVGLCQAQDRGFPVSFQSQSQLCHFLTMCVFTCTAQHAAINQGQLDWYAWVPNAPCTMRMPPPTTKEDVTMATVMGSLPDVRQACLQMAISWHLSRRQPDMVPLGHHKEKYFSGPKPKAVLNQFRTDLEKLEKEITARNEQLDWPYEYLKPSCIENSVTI

These molecules were tested against Polyunsaturated fatty acid lipoxygenase ALOX12 (Homo sapiens) (UniProt P18054) (assay: Primary qHTS assay for inhibitors of human arachidonate 12S-lipoxygenase (ALOX12): Round 2). Settings: purified 12hLO, xylenol orange hydroperoxide absorbance; series mostly up to 108 µM.
Method in brief: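 Purified human 12hLO (150 nM final) in 25 mM Hepes, 0.01% Triton X-100, pH 7.0 was preincubated 15 min at room temperature with compound. Then 40 uM arachidonic acid was added, 30 min. Hydroperoxide was read by Fe-XO absorbance ratio 573/405 nm.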
Potency means the concentration at half of the fitted maximal effect.

Structure (SMILES)	Potency
O=C(c1ccc2c(c1)OCO2)N1CCC2(CC1)COc1ccccc1CN2	inactive
O=C(Nc1ccc2nn(-c3ccccc3)nc2c1)c1ccc2c(c1)OCCO2	inconclusive: 141 µM [inhibitor, single point]
Cc1cc(C)n2nc(SCN3C(=O)c4ccccc4C3=O)nc2n1	inactive
Cc1ccc(-c2cc(C(=O)O)c3ccc(C)c(C)c3n2)s1	inactive
Cc1cc(C(=O)N/N=C/c2cc(Br)cc(Br)c2OC(=O)c2cccc(F)c2)n[nH]1	inactive
COc1ccc2nc(Sc3c([N+](=O)[O-])nc(C)n3Cc3ccccc3)[nH]c2c1	inactive
N#Cc1nc(/C=C/c2ccc(F)cc2)oc1N1CCCCC1	inactive
COc1ccccc1NC(=O)C(=O)N/N=C/c1cccs1	inactive
CCOC(=O)C1C(=O)C=C(c2ccc(F)cc2)CC1c1cccc(F)c1 (centres undefined)	inconclusive: 22.4 µM [inhibitor, partial curve, poor fit]
CC(=O)N/N=C/c1cc(C(C)C)cc(/C=N/NC(C)=O)c1O	inactive
Cc1ccc(-c2nc3ccc(Br)cn3c2Cc2ccccc2)cc1	inconclusive: 39.8 µM [inhibitor, partial curve]
CCCOc1ccccc1C(=O)Nc1ccc(-c2nc3ccc(C)cc3s2)cc1	inconclusive: 4.47 µM [inhibitor, full curve, poor fit]
O=C(NCCN1CCN(c2ccccc2)CC1)c1ccccc1F	inconclusive: 11.2 µM [inhibitor, partial curve, poor fit]
CCOC(=O)c1ccc(NC(=O)Cn2cc(S(=O)(=O)Cc3ccccc3F)c3ccccc32)cc1	inconclusive: 56.2 µM [inhibitor, partial curve, poor fit]
Clc1ccc2[nH]c(-c3ccccc3)cc2c1	inconclusive: 15.8 µM [inhibitor, partial curve, poor fit]
CN(C)c1ncnc2ccc(-c3ccoc3)cc12	inconclusive: 5.62 µM [inhibitor, full curve, poor fit]
COc1ccc2ccc3c(c2c1)N=C[C@]1(O3)N(C)c2ccccc2C1(C)C	inconclusive: 1 µM [inhibitor, full curve, poor fit]
CCCN1C(=O)c2[nH]nc(-c3c(C)cc(C)cc3O)c2C1c1ccc(OC)cc1 (centres undefined)	inconclusive: 25.1 µM [inhibitor, partial curve, poor fit]
CCC(=O)Nc1ccc(OCc2nc3ccccc3s2)cc1	inconclusive: 44.7 µM [inhibitor, partial curve, poor fit]
CC1(C)N=C(c2ccccn2)C(C)(C)N1O	inconclusive: 1.58 µM [inhibitor, full curve, poor fit]
Cc1c(Cc2ccc3c(c2)OCO3)sc(NC(=O)C(C)(C)C)c1C#N	inactive
OC(c1ccccc1)(c1nc(-c2csc3ccccc23)cs1)C(F)(F)F (centres undefined)	inconclusive: 50.1 µM [inhibitor, partial curve, poor fit]

Structure (SMILES)	Potency
CN(Cc1ccc(Cl)cc1Cl)c1ccc(S(N)(=O)=O)cn1	inconclusive: 44.7 µM [inhibitor, partial curve, poor fit]
Cn1c2c(c(=O)n(C)c1=O)C(c1ccccc1F)C(C#N)=C(N)O2 (centres undefined)	inconclusive: 89.1 µM [inhibitor, partial curve, poor fit]
O=C(CSc1nc2ccccc2s1)N1c2ccccc2Sc2ccc(C(F)(F)F)cc21	inactive
CCCCCCCCC1=NCCc2c1[nH]c1ccccc21	inactive
COc1cc2[nH]c(O)c(C=O)c2cc1OC	inconclusive: 5.62 µM [inhibitor, full curve, poor fit]
Cc1cc(C)cc(NC(=O)CSCc2cc(=O)n3ccsc3n2)c1	inconclusive: 7.08 µM [inhibitor, full curve] and inconclusive: 355 nM [inhibitor, full curve, poor fit]
O=C(CSc1nc2ccccc2nc1N1CCCC1)N1CCN(c2ccc(Cl)cc2)CC1	inactive
CN(Cc1ccccc1)C(=O)C1CCCN(Cc2cccc(Cl)c2)C1 (centres undefined)	inactive and inconclusive: 10 µM [inhibitor, full curve]
NC(=S)N/N=C/c1cc([N+](=O)[O-])ccc1OCCOc1ccccc1	inactive
CCN(c1ccccc1)c1nc2nonc2nc1NCCO	inconclusive: 100 µM [inhibitor, single point]
COc1cc(-c2csc(N3CCOCC3)n2)cc(OC)c1OC	inactive
CCN(Cc1ccccc1)C(=O)C1CCN(c2nc3ccccc3o2)CC1	inactive
COc1cccc(NCc2nc3c(n2Cc2ccccc2)C(=O)N(CC2CC2)CCN3)c1	inactive
Oc1ccc(/C=N/Nc2ccccc2)cc1	inconclusive: 25.1 µM [inhibitor, partial curve, poor fit]
Cn1cnc(CCNC(=O)[C@@H]2[C@@H](CO)[C@@H]3Cn4c(cccc4=O)[C@H]2N3C(=O)Nc2ccccc2)c1	inconclusive: 12.6 µM [inhibitor, partial curve, poor fit]
CC(C)Cc1nnc(NC(=O)CCC(=O)Nc2ccccc2)s1	inactive
Cn1c(-c2cccc(C(F)(F)F)c2)cc2cnc(Nc3cccc(Oc4ccccc4)c3)cc21	inconclusive: 112 µM [inhibitor, single point]
COc1cc(CN2C(=O)C(=O)c3cccc(C)c32)ccc1OCCC(C)C	inconclusive: 11.2 µM [inhibitor, full curve, poor fit]
O=C(/C=C/c1ccccn1)c1cc(Cl)cc(Cl)c1O	inconclusive: 44.7 µM [inhibitor, partial curve, poor fit]
O=C(C1CC1)N1CC=C(c2c[nH]c3ccccc23)CC1	inconclusive: 39.8 µM [inhibitor, partial curve, poor fit]
C#CCOc1c(Cl)cc(/C=C/C(=O)c2ccc(OCC(=O)O)cc2)cc1OC	inconclusive: 70.8 µM [inhibitor, single point]
Cc1cccc(C(=O)Nc2sc3c(c2C(=O)O)CCC3)c1	inactive
